Where a name gives a salt, the structure may show the parent alone. Read-outs that look alike come from different tables or passages of the source.
Target: AmphiAmR11 (Branchiostoma floridae, UniProt A0PF35)
Assay: Inhibition of forskolin-stimulated cAMP levels in AmphiAmR11-expressing CHO-K1 cells (agonist mode)
Format: cell-based

Chains of the proteins cited; added tags and fusions are not shown.
UniProt A0PF35, entry or part of it: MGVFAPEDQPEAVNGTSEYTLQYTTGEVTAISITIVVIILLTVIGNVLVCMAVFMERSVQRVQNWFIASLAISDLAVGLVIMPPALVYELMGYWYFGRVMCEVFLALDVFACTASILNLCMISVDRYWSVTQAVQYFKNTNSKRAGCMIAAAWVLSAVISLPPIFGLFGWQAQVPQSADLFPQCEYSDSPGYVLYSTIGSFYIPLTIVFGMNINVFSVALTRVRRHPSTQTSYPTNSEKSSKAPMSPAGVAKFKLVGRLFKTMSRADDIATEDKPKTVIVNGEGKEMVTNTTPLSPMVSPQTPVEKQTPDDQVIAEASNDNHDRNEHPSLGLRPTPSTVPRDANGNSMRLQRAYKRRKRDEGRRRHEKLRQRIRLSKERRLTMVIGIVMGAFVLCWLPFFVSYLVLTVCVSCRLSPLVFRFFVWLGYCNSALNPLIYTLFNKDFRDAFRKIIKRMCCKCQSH

**Q.** How did the EC50 (10 µM forskolin, 100 µM IBMX, 20 min, full concentration response curves, read-out: EC50 for decrease in forskolin-stimulated cAMP levels) turn out when `CN1CCN2c3ccccc3Cc3ccccc3C2C1` (centres unmarked) [mianserin, mianserin hydrochloride] was run?
**A.** Its EC50 is 12.6 nM.

**Q.** How did the EC50 turn out when `CCCN1CCC[C@@H]2Cc3n[nH]cc3C[C@H]21` [quinpirole, (-)-quinpirole hydrochloride] was run?
**A.** The EC50 was 31.7 nM.
